Assay results from the supplement of paper PMC8728848.
Some of the results follow.

Tests used:
Experiment in all cases: glycan array binding signal (z-score within array); higher = stronger binding
Conditions in all cases: glycan notation: IUPAC condensed, linker removed
[1] = biological target: Gal(b1-3)GalNAc(a1-3)[Fuc(a1-2)]Gal(b1-4)GlcNAc
In short: (§1)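 The binding signal is a Z-score computed within each array. Data were drawn from 3228 arrays in the Consortium for Functional Glycomics database, restricted to those with a known protein sequence. Scores were averaged over arrays of the same protein sequence at different concentrations or buffers, and over linkers, and negative values can be taken as non-binding.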

[2] = biological target: Gal(b1-3)GalNAc(b1-3)Gal(a1-4)Gal(b1-4)Glc
In short: as §1

[3] = biological target: Gal(b1-3)GalNAc(b1-4)Gal(b1-4)Glc
In short: as §1

[4] = biological target: Gal(b1-3)GalNAc(b1-4)[Neu5Ac(a2-3)]Gal(b1-4)Glc
In short: as §1

Gal(b1-3)GlcNAc = biological target: Gal(b1-3)GlcNAc
In short: as §1

[5] = biological target: Gal(b1-3)GlcNAc(a1-6)Gal(b1-4)GlcNAc
In short: as §1

[6] = biological target: Gal(b1-3)GlcNAc(b1-2)Man(a1-3)[Gal(b1-3)GlcNAc(b1-2)Man(a1-6)]Man(b1-4)GlcNAc(b1-4)GlcNAc
In short: as §1

[7] = biological target: Gal(b1-3)GlcNAc(b1-2)Man(a1-3)[Gal(b1-3)GlcNAc(b1-2)Man(a1-6)]Man(b1-4)GlcNAc(b1-4)[Fuc(a1-6)]GlcNAc
In short: as §1

[8] = biological target: Gal(b1-3)GlcNAc(b1-3)Gal(b1-3)GlcNAc
In short: as §1

[9] = biological target: Gal(b1-3)GlcNAc(b1-3)Gal(b1-4)Glc
In short: as §1

[10] = biological target: Gal(b1-3)GlcNAc(b1-3)Gal(b1-4)GlcNAc
In short: as §1

[11] = biological target: Gal(b1-3)GlcNAc(b1-3)Gal(b1-4)GlcNAc(b1-6)[Gal(b1-3)GlcNAc(b1-3)]Gal(b1-4)Glc
In short: as §1

[12] = biological target: Gal(b1-3)GlcNAc(b1-3)Gal(b1-4)[Fuc(a1-3)]GlcNAc(b1-6)[Gal(b1-3)GlcNAc(b1-3)]Gal(b1-4)Glc
In short: as §1

[13] = biological target: Gal(b1-3)GlcNAc(b1-3)GalNAc
In short: as §1

[14] = biological target: Gal(b1-3)GlcNAc(b1-6)Gal(b1-4)GlcNAc
In short: as §1

[15] = biological target: Gal(b1-3)[Fuc(a1-4)]GlcNAc
In short: as §1

[16] = biological target: Gal(b1-3)[Fuc(a1-4)]GlcNAc(b1-2)Man(a1-3)[Gal(b1-3)[Fuc(a1-4)]GlcNAc(b1-2)Man(a1-6)]Man(b1-4)GlcNAc(b1-4)GlcNAc
In short: as §1

[17] = biological target: Gal(b1-3)[Fuc(a1-4)]GlcNAc(b1-2)Man(a1-3)[Gal(b1-3)[Fuc(a1-4)]GlcNAc(b1-2)Man(a1-6)]Man(b1-4)GlcNAc(b1-4)[Fuc(a1-6)]GlcNAc
In short: as §1

[18] = biological target: Gal(b1-3)[Fuc(a1-4)]GlcNAc(b1-3)Gal(b1-3)[Fuc(a1-4)]GlcNAc
In short: as §1

[19] = biological target: Gal(b1-3)[Fuc(a1-4)]GlcNAc(b1-3)Gal(b1-4)GlcNAc
In short: as §1

[20] = biological target: Gal(b1-3)[Fuc(a1-4)]GlcNAc(b1-3)Gal(b1-4)[Fuc(a1-3)]GlcNAc
In short: as §1

[21] = biological target: Gal(b1-3)[GlcNAc(b1-6)]GalNAc
In short: as §1

[22] = biological target: Gal(b1-3)[Neu5Ac(a2-6)]GalNAc
In short: as §1

[23] = biological target: Gal(b1-3)[Neu5Ac(a2-6)]GlcNAc(b1-6)Gal(b1-4)Glc
In short: as §1

[24] = biological target: Gal(b1-3)[Neu5Ac(b2-6)]GalNAc
In short: as §1

[25] = biological target: Gal(b1-4)GalNAc(a1-3)[Fuc(a1-2)]Gal(b1-4)GlcNAc
In short: as §1

[26] = biological target: Gal(b1-4)GalNAc(b1-3)[Fuc(a1-2)]Gal(b1-4)GlcNAc
In short: as §1

Gal(b1-4)Glc = biological target: Gal(b1-4)Glc
In short: as §1

Gal(b1-4)Glc6S = biological target: Gal(b1-4)Glc6S
In short: as §1

Gal(b1-4)GlcNAc = biological target: Gal(b1-4)GlcNAc
In short: as §1

[27] = biological target: Gal(b1-4)GlcNAc(a1-6)Gal(b1-4)GlcNAc
In short: as §1

[28] = biological target: Gal(b1-4)GlcNAc(b1-2)Man(a1-3)Man(b1-4)GlcNAc(b1-4)GlcNAc
In short: as §1

[29] = biological target: Gal(b1-4)GlcNAc(b1-2)Man(a1-3)[Gal(b1-4)GlcNAc(b1-2)Man(a1-6)]Man(b1-4)GlcNAc(b1-4)GlcNAc
In short: as §1

[30] = biological target: Gal(b1-4)GlcNAc(b1-2)Man(a1-3)[Gal(b1-4)GlcNAc(b1-2)Man(a1-6)]Man(b1-4)GlcNAc(b1-4)[Fuc(a1-6)]GlcNAc
In short: as §1

[31] = biological target: Gal(b1-4)GlcNAc(b1-2)Man(a1-3)[GlcNAc(b1-2)Man(a1-6)]Man(b1-4)GlcNAc(b1-4)GlcNAc
In short: as §1

[32] = biological target: Gal(b1-4)GlcNAc(b1-2)Man(a1-3)[Man(a1-6)]Man(b1-4)GlcNAc(b1-4)GlcNAc
In short: as §1

[33] = biological target: Gal(b1-4)GlcNAc(b1-2)Man(a1-6)Man(b1-4)GlcNAc(b1-4)GlcNAc
In short: as §1

B1: SRS2 (Toxoplasma gondii), O15695 (protein)
chain: MATRASLARQKTGAACLAVLTASPSVVAAKPWKRWVGVSVILASAFAVGVSAGPPYRYEPEKFTCRPKKGILSQWVSLLYQVQHNITFACEEATPVPTTLISEEHGLMVCAENMTPEECEANPAPLSAFLPGATKEWVTGDSVLTGLKISVPESQYPANAKSFRVGCRHNTKTGNTCMLTIHVEPRDPAVERQEARCSYTENSTLPKIFVTKDSNTMTLACGPHGAPMPESYTENYCSTPDTCDEKPFTSVIPGYLSKWFFGDPKSPLGARVRIPPEQIPSSPQINYFGCTGPTEGEGPKYNCTVPVPLGGGDPSEGSRPGGGSGGGKRGGGQGGGGSLAGFDFRQGSARHSLPSRMALSASALLAMTALAY
glycan array binding signal (z-score) [1]: -0.437
glycan array binding signal (z-score) [2]: 0.365
glycan array binding signal (z-score) [3]: 0.16
glycan array binding signal (z-score) [4]: -0.024
glycan array binding signal (z-score) (Gal(b1-3)GlcNAc): -0.506
glycan array binding signal (z-score) [5]: -0.133
glycan array binding signal (z-score) [6]: -0.395
glycan array binding signal (z-score) [7]: 1.18
glycan array binding signal (z-score) [8]: -0.3
glycan array binding signal (z-score) [9]: 0.39
glycan array binding signal (z-score) [10]: -0.649
glycan array binding signal (z-score) [11]: -0.73
glycan array binding signal (z-score) [12]: -0.534
glycan array binding signal (z-score) [13]: 0.023
glycan array binding signal (z-score) [14]: -1.15
glycan array binding signal (z-score) [15]: -0.246
glycan array binding signal (z-score) [16]: 1.03
glycan array binding signal (z-score) [17]: -0.006
glycan array binding signal (z-score) [18]: 0.13
glycan array binding signal (z-score) [19]: -0.495
glycan array binding signal (z-score) [20]: 0.915
glycan array binding signal (z-score) [21]: -0.089
glycan array binding signal (z-score) [22]: -0.032
glycan array binding signal (z-score) [23]: -0.026
glycan array binding signal (z-score) [24]: -0.207
glycan array binding signal (z-score) [25]: 0.163
glycan array binding signal (z-score) [26]: -0.802
glycan array binding signal (z-score) (Gal(b1-4)Glc): -0.395
glycan array binding signal (z-score) (Gal(b1-4)Glc6S): -0.35
glycan array binding signal (z-score) (Gal(b1-4)GlcNAc): -0.427
glycan array binding signal (z-score) [27]: 0.926
glycan array binding signal (z-score) [28]: -0.517
glycan array binding signal (z-score) [29]: -0.061
glycan array binding signal (z-score) [30]: 1.54
glycan array binding signal (z-score) [31]: 0.226
glycan array binding signal (z-score) [32]: 0.63
glycan array binding signal (z-score) [33]: 0.196
